These are yes or no findings as the source states them, for the method shown. In cells and extracts the contact can be indirect. Some results given as binding are weak or reduced against the parent protein; the word gives no strength.
Legend:
[1] = target: Connective tissue growth factor (CTGF) (human (endogenous in RA FLS)) (UniProt P29279); assay: co-IP; FLS lysates (RIPA buffer with protease inhibitors), anti-CTGF mAb or anti-ANXA2 mAb at 4 °C, protein A agarose beads, washed with PBS, western blot
[2] = target: Annexin A2 (ANXA2) (human (endogenous in RA FLS)) (UniProt P07355); assay: as above
[3] = target: VN (I152L)-ANXA2 (ANXA2-full length in pBiFC-VN155 (I152L)) (human) (UniProt P07355); assay: split reporter; BiFC: pBiFC-VC155 and pBiFC-VN155 (I152L) constructs co-transfected into HEK293T cells, fluorescence microscopy after 48 h

Sequences of proteins named here, by UniProt entry; tags and fusion partners are left off. A change or cut given only in a name is not applied to a line headed by its entry. Residues count along the entry.
UniProt P29279, residues 27-349: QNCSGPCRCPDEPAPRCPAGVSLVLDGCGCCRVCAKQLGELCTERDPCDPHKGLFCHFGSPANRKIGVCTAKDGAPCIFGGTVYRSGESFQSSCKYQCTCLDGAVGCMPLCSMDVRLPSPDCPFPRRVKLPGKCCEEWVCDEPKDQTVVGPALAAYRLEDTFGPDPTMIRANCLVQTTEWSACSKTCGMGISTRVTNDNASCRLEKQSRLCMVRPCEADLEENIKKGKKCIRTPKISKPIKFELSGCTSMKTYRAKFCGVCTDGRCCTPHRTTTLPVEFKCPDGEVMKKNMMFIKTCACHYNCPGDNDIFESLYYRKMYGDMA
UniProt P07355: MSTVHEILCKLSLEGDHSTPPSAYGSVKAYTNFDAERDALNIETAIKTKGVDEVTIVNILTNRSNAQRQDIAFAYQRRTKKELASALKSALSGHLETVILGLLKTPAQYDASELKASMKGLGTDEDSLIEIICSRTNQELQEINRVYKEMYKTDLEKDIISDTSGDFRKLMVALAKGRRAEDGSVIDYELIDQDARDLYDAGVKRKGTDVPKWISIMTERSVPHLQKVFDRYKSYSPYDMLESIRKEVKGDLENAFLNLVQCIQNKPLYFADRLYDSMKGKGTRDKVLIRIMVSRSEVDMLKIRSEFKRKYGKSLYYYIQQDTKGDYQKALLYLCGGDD

Substance: Annexin A2 (ANXA2) (from UniProt P07355 1-339)
- binding [1]: binds

Substance: Connective tissue growth factor (CTGF) (from UniProt P29279 27-349)
- binding [2]: binds

Substance: VC155-CTGF (CTGF-full length in pBiFC-VC155) (from UniProt P29279 27-349)
- binding [3]: binds

Source: paper PMC8547044
